PubChem BioAssay AID1224828 – NIAID – 2016

- Assay: 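Find genes required for NF-kappaB p65 moving into the nucleus after LPS in mouse macrophages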 (primary screen)
- System: mouse RAW264.7 G9 macrophage reporter cells (GFP-p65, Tnf promoter-mCherry)
- Reagent: siRNA pool against mouse genes, 100 nM
- Duration: 2 days siRNA transfection, then 40 min LPS before fixation
- Conditions: LPS (Salmonella minnesota R595) at 10 ng/ml
- Read-out: 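Imaged p65 nuclear translocation ratio, normalised to the plate median, converted to robust z-scores and averaged across two replicates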
- Reading the numbers: p65 translocation robust z-score: higher = more nuclear NF-kappaB p65 after LPS than the plate median; nuclear/cytoplasmic p65 ratio: higher = more nuclear NF-kappaB p65
- Hit rule: 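Active if robust z is above 3.3 (negative regulators) or below -1.56, the Tlr4 control median (positive regulators); activity score 50 or more; control wells not called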
- Meaning of the calls: active = hit (p65 shift raised or lowered); inactive = no clear change
This is one part, drawn at random, of about 17,000 reagents. 762 of them (4.5%) count as active. 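Active calls include both raised and lowered p65 entry, mostly lowered; wells with fewer than 50 cells lack a z-score.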 The raw values are shown without normalisation. The numbers tell different reagents against one gene apart.

target | reagent no. | p65 translocation robust z-score | nuclear/cytoplasmic p65 ratio, rep 1 | nuclear/cytoplasmic p65 ratio, rep 2 | low cell count flag | outcome
Gemin5 | 1 | -0.66 | 1.46 | 1.41 | enough cells to score | inactive
Neu2 | 1 | -0.59 | 1.69 | 1.53 | enough cells to score | inactive
Srpk2 | 1 | – | 1.7 | 1.55 | fewer than 50 cells per well; well left out of scoring | inactive
Or6z7 | 1 | 0.38 | 1.49 | 1.42 | enough cells to score | inactive
Rbl1 | 1 | -0.95 | 1.41 | 1.35 | enough cells to score | inactive
Herpud1 | 1 | 0.89 | 1.58 | 1.46 | enough cells to score | inactive
Flt3 | 1 | 0.74 | 1.9 | 1.4 | enough cells to score | inactive
Miox | 1 | 0.83 | 1.81 | 1.68 | enough cells to score | inactive
Pcgf2 | 1 | 0.58 | 1.51 | 1.68 | enough cells to score | inactive
Or10a5 | 1 | -0.02 | 1.51 | 1.37 | enough cells to score | inactive
Epha5 | 1 | -1.35 | 1.34 | 1.33 | enough cells to score | inactive
Ce9 | 1 | 1.13 | 1.79 | 1.8 | enough cells to score | inactive
Chmp3 | 1 | -0.12 | 1.35 | 1.24 | enough cells to score | inactive
Pcdhga9 | 1 | – | 1.32 | 1.12 | fewer than 50 cells per well; well left out of scoring | inactive
Tekt1 | 1 | – | 1.22 | 0.951 | fewer than 50 cells per well; well left out of scoring | inactive
Ptprh | 1 | 0.25 | 1.56 | 1.54 | enough cells to score | inactive
Ttn | 1 | – | 1.92 | 1.42 | fewer than 50 cells per well; well left out of scoring | inactive
Ttn | 2 | – | 1.27 | 1.49 | fewer than 50 cells per well; well left out of scoring | inactive
Or51f23 | 1 | – | 1.36 | 1.47 | fewer than 50 cells per well; well left out of scoring | inactive
Mecp2 | 1 | – | 1.18 | 1.25 | fewer than 50 cells per well; well left out of scoring | inactive
Smc1a | 1 | – | 0 | 1.37 | fewer than 50 cells per well; well left out of scoring | inactive
Or10g7 | 1 | – | 1.33 | 1.26 | fewer than 50 cells per well; well left out of scoring | inactive
Prdm1 | 1 | 1.05 | 1.55 | 1.63 | enough cells to score | inactive
Gcat | 1 | 1.22 | 1.72 | 1.68 | enough cells to score | inactive
